Results: patent publication US20190022104A1 (priority 2016, published 2019)

Tested on: mice with sepsis shock induced by 75 mg/kg endotoxin
Assay: Survival of mice with sepsis shock induced by 75 mg/kg endotoxin
Type: in vivo
Settings: 10 mice per group, endotoxin group 6 died
Description: The model of septic shock in mice was induced by intraperitoneal injection of a toxic dose of 75 mg/kg endotoxin. […] The model of sepsis shock in mice was induced by intraperitoneal injection of a total lethal dose of 150 mg/kg endotoxin. […] Mice injected intraperitoneally with placebo in place of endotoxin were used as a normal control group.
The model of sepsis shock in mice was induced with 75 mg/kg endotoxin.

CN1[C@@H]2CC[C@H]1C[C@@H](OC(=O)C(CO)c1ccccc1)C2 (stereo partly shown) [atropine]
number of mice died: 3
